Source: PubChem BioAssay AID602196 (INSERM, 2012)

Purpose: 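Modifiers of cisplatin sensitivity in A549 cells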
System: human A549 lung cancer cells
Knock-down reagent: siRNA pair against human genes
Time to read-out: 48 h transfection before cisplatin; time from cisplatin to read-out not stated
Conditions: cisplatin at a dose killing half of control-siRNA cells; exact dose and duration not given
Measurement: 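Cisplatin cell death as a shift from the 50% death seen with control siRNA; siRNAs toxic or growth-blocking alone scored 0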
Reading the numbers: two-siRNA summed score (-2 to +2): higher = both siRNAs protect from cisplatin killing; -2 means both sensitise; mean protection from cisplatin (shift in death): higher = protection from cisplatin killing
Active means: 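siRNAs harmful alone (LDH or WST-1) get 0; others get +1 for less and -1 for more cisplatin killing; genes are active when the two siRNAs give the same sign, summing to ±2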
Meaning of the calls: active = both siRNAs shift cisplatin killing the same way; inactive = no consistent shift, or siRNA harmful alone
This is a random part of about 23,000 deposited reagents. 455 of all reagents (2%) were called active. 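Active includes both protection and sensitisation; some change values fall well beyond the stated -50 to +50 range.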 A number with no mark means an inactive call. Further read-outs or replicates are left out here. Reagent sequences are not shown. Not given: the amount of reagent.

ZNRD2 | two-siRNA summed score (-2 to +2): 0; mean protection from cisplatin (shift in death) (%): 6.3
LOC388960 | two-siRNA summed score (-2 to +2): 1; mean protection from cisplatin (shift in death) (%): 11.8
SELENOT | two-siRNA summed score (-2 to +2): -1; mean protection from cisplatin (shift in death) (%): -6
RPL17 | two-siRNA summed score (-2 to +2): 0; mean protection from cisplatin (shift in death) (%): -3.4
LOC440301 | two-siRNA summed score (-2 to +2): 1; mean protection from cisplatin (shift in death) (%): 24.3
NMRAL2P | two-siRNA summed score (-2 to +2): 0; mean protection from cisplatin (shift in death) (%): 6
LOC388458 | two-siRNA summed score (-2 to +2): 1; mean protection from cisplatin (shift in death) (%): 6.2
HPCAL4 | two-siRNA summed score (-2 to +2): 0; mean protection from cisplatin (shift in death) (%): -1.9
LGR4 | two-siRNA summed score (-2 to +2): 0; mean protection from cisplatin (shift in death) (%): -6.6
DIMT1 | two-siRNA summed score (-2 to +2): 0; mean protection from cisplatin (shift in death) (%): 25
LOC402414 | two-siRNA summed score (-2 to +2): 0; mean protection from cisplatin (shift in death) (%): 4
HEPH | two-siRNA summed score (-2 to +2): -1; mean protection from cisplatin (shift in death) (%): -17.6
TAB2 | two-siRNA summed score (-2 to +2): 1; mean protection from cisplatin (shift in death) (%): 7.6
OTUD1 | two-siRNA summed score (-2 to +2): 1; mean protection from cisplatin (shift in death) (%): 5.3
TSR2 | two-siRNA summed score (-2 to +2): 0; mean protection from cisplatin (shift in death) (%): 7.9
TMEM268 | two-siRNA summed score (-2 to +2): 0; mean protection from cisplatin (shift in death) (%): 19.4
TNFRSF17 | two-siRNA summed score (-2 to +2): 1; mean protection from cisplatin (shift in death) (%): 9.6
CCDC47 | two-siRNA summed score (-2 to +2): -1; mean protection from cisplatin (shift in death) (%): -5.9
SMOC1 | two-siRNA summed score (-2 to +2): 0; mean protection from cisplatin (shift in death) (%): -2
MPEG1 | two-siRNA summed score (-2 to +2): 1; mean protection from cisplatin (shift in death) (%): 9
RABEP2 | two-siRNA summed score (-2 to +2): 0; mean protection from cisplatin (shift in death) (%): -0.9
LOC389151 | two-siRNA summed score (-2 to +2): 0; mean protection from cisplatin (shift in death) (%): 1.7
SLC22A7 | two-siRNA summed score (-2 to +2): -1; mean protection from cisplatin (shift in death) (%): -13.9
LOC389425 | two-siRNA summed score (-2 to +2): 0; mean protection from cisplatin (shift in death) (%): 5.1

The list goes on; the last 4 above are carried over.
RABEP2 | two-siRNA summed score (-2 to +2): 0; mean protection from cisplatin (shift in death) (%): -0.9
LOC389151 | two-siRNA summed score (-2 to +2): 0; mean protection from cisplatin (shift in death) (%): 1.7
SLC22A7 | two-siRNA summed score (-2 to +2): -1; mean protection from cisplatin (shift in death) (%): -13.9
LOC389425 | two-siRNA summed score (-2 to +2): 0; mean protection from cisplatin (shift in death) (%): 5.1
IMPDH1 | two-siRNA summed score (-2 to +2): 0; mean protection from cisplatin (shift in death) (%): -13
CXorf38 | two-siRNA summed score (-2 to +2): -1; mean protection from cisplatin (shift in death) (%): -4.3
LOC441709 | two-siRNA summed score (-2 to +2): 0; mean protection from cisplatin (shift in death) (%): -1
HNF4G | two-siRNA summed score (-2 to +2): -1; mean protection from cisplatin (shift in death) (%): -9.7
HSD17B2 | two-siRNA summed score (-2 to +2): 0; mean protection from cisplatin (shift in death) (%): -5.9
KIAA1191 | two-siRNA summed score (-2 to +2): 0; mean protection from cisplatin (shift in death) (%): 6.4
LOC390158 | two-siRNA summed score (-2 to +2): 0; mean protection from cisplatin (shift in death) (%): 16.7
OCLM (retired record) | two-siRNA summed score (-2 to +2): 2 (active); mean protection from cisplatin (shift in death) (%): 17.5
PARM1 | two-siRNA summed score (-2 to +2): 0; mean protection from cisplatin (shift in death) (%): 1.5
LOC139193 | two-siRNA summed score (-2 to +2): 0; mean protection from cisplatin (shift in death) (%): 4.2
MMP16 | two-siRNA summed score (-2 to +2): -1; mean protection from cisplatin (shift in death) (%): -23.6
LCN8 | two-siRNA summed score (-2 to +2): 0; mean protection from cisplatin (shift in death) (%): 15.6
NEB | two-siRNA summed score (-2 to +2): 0; mean protection from cisplatin (shift in death) (%): -1.8
LMNB1 | two-siRNA summed score (-2 to +2): 0; mean protection from cisplatin (shift in death) (%): 10.2
LYPD6 | two-siRNA summed score (-2 to +2): 0; mean protection from cisplatin (shift in death) (%): 3.3
FLJ42258 (retired record) | two-siRNA summed score (-2 to +2): 0; mean protection from cisplatin (shift in death) (%): 10.4
